Data: paper doi:10.1101/2024.02.02.578563

Amino acid sequences for entries named in this document (tags omitted). A change or cut given only in a name is not applied to a line headed by its entry.
UniProt P27695: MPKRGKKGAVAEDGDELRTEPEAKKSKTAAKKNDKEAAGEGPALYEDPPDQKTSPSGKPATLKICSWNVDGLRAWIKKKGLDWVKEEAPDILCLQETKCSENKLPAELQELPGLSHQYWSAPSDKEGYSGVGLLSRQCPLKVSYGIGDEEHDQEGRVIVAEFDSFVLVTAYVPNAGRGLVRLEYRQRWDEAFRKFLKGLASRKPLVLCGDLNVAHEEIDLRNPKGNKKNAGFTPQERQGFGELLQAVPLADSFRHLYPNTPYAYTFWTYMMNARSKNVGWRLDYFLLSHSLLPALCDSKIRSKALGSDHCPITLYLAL
UniProt P22626: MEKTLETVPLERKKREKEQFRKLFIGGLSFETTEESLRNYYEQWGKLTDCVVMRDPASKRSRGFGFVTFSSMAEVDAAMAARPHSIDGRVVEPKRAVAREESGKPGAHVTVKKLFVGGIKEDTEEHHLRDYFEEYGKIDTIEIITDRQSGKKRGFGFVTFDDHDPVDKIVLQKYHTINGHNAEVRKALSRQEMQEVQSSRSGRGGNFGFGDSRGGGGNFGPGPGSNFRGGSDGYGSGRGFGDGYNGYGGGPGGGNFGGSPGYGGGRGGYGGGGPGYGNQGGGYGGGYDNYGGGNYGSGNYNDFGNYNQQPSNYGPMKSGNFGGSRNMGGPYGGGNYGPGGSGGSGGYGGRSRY

Legend:
rGST APE1 WT (human) = rGST APE1 WT (human) (UniProt P27695); experiment: UV crosslinking SDS-PAGE; settings: residues 1-318
rGST hnRNPA2B1 = rGST hnRNPA2B1 (UniProt P22626); experiment: UV crosslinking SDS-PAGE

AAUGGAUUUUUGGAGCAGG [hsa-miR-1246]: binds (rGST APE1 WT (human)); binds (rGST hnRNPA2B1).

Construct, isoform or probe ends are uncertain for at least one entry. At least one verdict rests on a figure or table, not on a statement of the authors.
